Results are given in words; binding and its absence hold for the method and conditions named. In cells and extracts the contact can be indirect. These calls come from enrichment with a bait or labelling near it, and not all partners need be listed.

In the assay the target is CG31030 with a C-terminal V5 tag (CG31030^V5) (Drosophila melanogaster). Kind of assay: affinity purification with mass spectrometry.

B1: ATP6AP2 (V-ATPase accessory subunit, fly homolog of human ATP6AP2/PRR) (protein, UniProt Q9VHG4 18-320)
chain: SGEFTVLNRPKAISFKGNDALESHYVGDVLYASMGNAVSGDTNWNGLTINDPFNLAKGVILVHVQGIGHVTTAGNVKTYELTGSGTDASLNALAAELEAANEPVCDINFEQFDDGVQAWKSCFGDFEAPAAKPTKHLNPSLHTADKQFLQEVGFINSAADHLAEMAKPSNVLMLRVSVDGVAKAHGEKSVAVEEANKLLSAAISRLLAASQKSSDSVLFVQTTEKDVAASRAKRDTIAASTTNPYNLAVYYGSDYPVIFNIILWFMVVFGLSLLAICYAIAAMDPGRDSIIYRMTSTRIKKDN
As to B1, the binding result is reported as “binds”.

Source of the values: article doi:10.1101/2021.02.08.430253.
